From patent US8530648B2, “Diaza-spiro[5.5]undecanes” (Novartis AG, priority 2009, dated 2013)
pKi: −log10 of the molar value.

Protein sequences, listed by entry. Tags and fused reporters are not part of them.
UniProt O43613, whole entry: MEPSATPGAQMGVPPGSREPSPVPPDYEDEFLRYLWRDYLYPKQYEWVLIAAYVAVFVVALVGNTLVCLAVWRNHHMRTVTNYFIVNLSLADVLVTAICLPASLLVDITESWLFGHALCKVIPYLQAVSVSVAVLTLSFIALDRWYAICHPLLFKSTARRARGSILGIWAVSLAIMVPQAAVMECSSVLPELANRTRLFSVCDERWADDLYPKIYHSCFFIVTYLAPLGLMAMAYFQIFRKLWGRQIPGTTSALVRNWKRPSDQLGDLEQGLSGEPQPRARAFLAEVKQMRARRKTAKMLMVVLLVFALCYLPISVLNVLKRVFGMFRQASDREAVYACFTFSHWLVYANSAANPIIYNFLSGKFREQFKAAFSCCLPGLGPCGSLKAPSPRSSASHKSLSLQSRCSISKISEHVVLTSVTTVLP
UniProt O43614, whole entry: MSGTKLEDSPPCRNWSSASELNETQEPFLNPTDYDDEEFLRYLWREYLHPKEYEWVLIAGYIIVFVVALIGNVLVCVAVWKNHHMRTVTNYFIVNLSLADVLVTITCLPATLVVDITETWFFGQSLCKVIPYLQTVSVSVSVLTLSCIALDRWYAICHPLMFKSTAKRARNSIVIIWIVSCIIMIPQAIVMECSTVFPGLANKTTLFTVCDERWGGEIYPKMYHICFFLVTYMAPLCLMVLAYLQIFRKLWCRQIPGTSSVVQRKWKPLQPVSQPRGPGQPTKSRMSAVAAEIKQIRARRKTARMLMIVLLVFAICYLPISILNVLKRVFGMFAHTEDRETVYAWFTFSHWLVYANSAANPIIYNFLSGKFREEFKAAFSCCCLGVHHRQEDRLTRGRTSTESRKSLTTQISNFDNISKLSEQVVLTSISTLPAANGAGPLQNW

Columns and labels:
hOx1R = hOx1R (Homo sapiens (Human), UniProt O43613); assay: Calcium accumulation in cells (FLIPR), hOx1R; assay type: cell-based; details: inhibition of orexin A induced calcium accumulation, Cheng and Prusoff correction
Protocol: (§1) Calcium Accumulation in Cells (FLIPR):
(§2) Cells expressing human orexin 1 or human orexin 2 receptors, were seeded at 8,000 cells/well in 384 well black-walled clear bottom, poly-D-lysine coated plates. After 24 h, the medium was removed and cells were washed once with phosphate buffered saline and serum-deprived overnight in assay buffer (130 mM NaCl, 5.4 mM KCl, 1.8 mM CaCl2, 0.8 mM MgSO4, 0.9 mM NaH2PO4, 25 mM glucose, 20 mM HEPES, pH 7.4) containing bovine serum albumin (1% w/v).
(§3) On the day of the experiment, the cells seeded in black plates were treated with assay buffer containing the Ca^2+ sensitive fluorescent dye Fluo-4-AM (2 μM), and probenecid (0.1 mM). After 1 h plates were washed twice with, and resuspended in, assay buffer containing probenecid (0.1 mM) using a multi plate washer. […] Fluorescence measurements were then continued every 1 S for 120 S followed by every 4 S for 240 S.
(§4) The measurements were typically made in two sequences:
(§5) Compounds of formula I were tested usually in a concentration range from 10^−9 M to 10^−5 M.
(§6) In the second round, performed one hour later (to allow for equilibration), Orexin A was tested either in the absence (calibration curves, Orexin A agonist controls) or in the presence of compounds of formula I to determine antagonism.

hOx2R = hOx2R (Homo sapiens (Human), UniProt O43614); assay: Calcium accumulation in cells (FLIPR), hOx2R; assay type: cell-based; details: inhibition of orexin A induced calcium accumulation, Cheng and Prusoff correction
Protocol: as §1, §2, §3, §4, §5, §6

- pKi (hOx1R): 5.62
- pKi (hOx2R): 6.74
Compound: O=C1N(Cc2c[nH]c3ccccc23)CCCC12CCN(c1ccc3nccn3n1)CC2 [Example 168, 2-((1H-indol-3-yl)methyl)-9-(imidazo[1,2-b]pyridazin-6-yl)-2,9-diazaspiro[5.5]undecan-1-one]
